Test results reported in the supplement of paper PMC12578635.
± gives the standard deviation of the averaged measurements. The list shows a part of the results. Single values are uncertain, as repeats are few or missing.

What follows are compounds tested on RAW 264.7 macrophages infected with S. aureus JE2-lux (assay: host macrophage viability (CellTiter-Fluor) relative to DMSO vehicle; higher = more viable host cells). Conditions: 10 µM; treatment time 4 h; gentamicin 50 µg/ml.
With `COc1ccc(CCN2CCCn3c2nc2c3c(=O)[nH]c(=O)n2C)cc1OC` the host macrophage viability was 107%.
`O=C(O)c1ccc(CN2C(=O)CSC2=O)cc1` was tested, and the host macrophage viability was 111%.
Compound `O=c1/c(=C/c2cccc([N+](=O)[O-])c2)sc2nc(-c3ccncc3)nn12` has a host macrophage viability of 117%.
`COc1ccc2nc(CN3CCC(NC(C)=O)(c4ccccc4F)CC3)ccc2c1` was tested, and the host macrophage viability was 121%.
With `COc1ccc(C)cc1NC(=O)CCN1C(=O)c2ccccc2S1(=O)=O` the host macrophage viability was 112%.
`O=C(CSc1c(-c2ccccc2)[nH]c2ccccc12)NCc1ccco1` was tested, and the host macrophage viability was 117%.
Compound `Cn1c(=O)c(Nc2ccc(O)cc2)c2c3c(cccc31)C(=O)c1ccccc1-2` has a host macrophage viability of 83.1%.
Compound `CN(C)CCn1c2c(c(SCC(=O)Nc3ccc([N+](=O)[O-])cc3)nc1=O)CCC2` has a host macrophage viability of 117%.
For `CCOCCCNC(=O)c1sc2nc(C)nc(N3CCCC3)c2c1C`, the host macrophage viability was 123%.
In the case of `CCn1c(C)cc2cc(NC(=O)c3c(-c4ccncc4)noc3C)ccc21`, the host macrophage viability is reported as 108%.
`COc1ccc(CCC(=O)Nc2ccc3c(c2)C(=O)Nc2ccccc2O3)cc1` showed a host macrophage viability of 120%.
`O=C(CN1C(=O)c2ccccc2C1=O)OCC(=O)c1ccc(-c2ccccc2)cc1` was tested, and the host macrophage viability was 117%.
`CC(C)NC(=O)CN1CCN(c2ncc(NC(=O)c3ccc(F)cc3)cc2C(=O)O)CC1` showed a host macrophage viability of 113%.
Compound `COc1ccc(NC(=O)CSc2nc3ccccc3c(=O)[nH]2)c(OC)c1` has a host macrophage viability of 94%.
Work on `CCOC(=O)c1sc(NC(=O)CSc2nc(=O)n3ccc(C)cc3n2)c(C(=O)OCC)c1C` yielded a host macrophage viability of 114%.
`C=CCOc1ccccc1NC(=O)c1cnc(N2CCOCC2)nc1` was tested, and the host macrophage viability was 120%.
With `CC(Cc1ccco1)NC(=O)Cn1cccc1-c1nc(-c2ccccc2)cs1` (configuration not stated) the host macrophage viability was 82.7%.
Work on `O=C1Nc2ccc(Br)cc2/C1=N/NC(=O)c1ccccc1NC(=O)c1ccccc1` yielded a host macrophage viability of 107%.
In the case of `Cc1nn2c(-n3cccc3)c(-c3ccc(F)cc3)nc2s1`, the host macrophage viability is reported as 123%.
In the case of `O=C(Nc1cc2c3c(c1)CCC(=O)N3CCC2)c1cccc(C(F)(F)F)c1`, the host macrophage viability is reported as 110%.
`CCC1Sc2ccc(S(=O)(=O)CCC(=O)NC(C)(C)C)cc2NC1=O` (configuration not stated) was tested, and the host macrophage viability was 120%.
Work on `O=C(NCc1ccc2[nH]c3c(c2c1)CCCC3)Nc1ccc(Cl)cc1` yielded a host macrophage viability of 120.5 ± 1.2%.
Work on `NC(=O)c1c(NC(=O)/C=C/c2ccc(Cl)cc2Cl)sc2c1CCCC2` yielded a host macrophage viability of 126%.
`Cc1nc(N2CCCC2)c2c(C)c(C(=O)N3CCOCC3)sc2n1` was tested, and the host macrophage viability was 96.2%.
With `Clc1cccc2nc3n(c12)CCN(C1CCCCC1)C3` the host macrophage viability was 110%.
Compound `CN(Cc1cc(O)nc2ccccc12)S(=O)(=O)c1ccc2c(c1)CCC(=O)N2` has a host macrophage viability of 115%.
Work on `COCCNC(=O)Cn1nc2c3c(C)c(C)sc3ncn2c1=O` yielded a host macrophage viability of 138%.
`Cc1nc2nc(NC(=O)Cn3nnc4ccccc43)ccc2c(C)c1C` was tested, and the host macrophage viability was 112%.
With `Cc1ccc(/N=C2/NC(=O)/C(=C/c3ccccc3)S2)cc1` the host macrophage viability was 118%.
`C=CCOC(=O)C1=C(C)Nc2c(c(=O)n(C)c(=O)n2C)C1c1cccnc1` (configuration not stated) showed a host macrophage viability of 115%.
Work on `O=C(O)CCC(=O)NCCn1c(-c2ccccc2)cs/c1=N/c1ccccc1` yielded a host macrophage viability of 118 ± 13%.
`Cc1cc(C)nc(NS(=O)(=O)c2ccc(NC(=O)c3ccc(Cl)cc3)cc2)n1` showed a host macrophage viability of 141%.
`Cc1ncc(C(=O)NC(c2ccccc2)c2ccnn2C)c(C)n1` (configuration not stated) showed a host macrophage viability of 112%.
Compound `O=C(CSc1c[nH]c2ccccc12)NCc1ccccc1` has a host macrophage viability of 112%.
`Cc1ccc(NC(=O)CSc2c[nH]c3ccccc23)c(C)c1` gave a host macrophage viability of 134%.
`COc1cc(Cl)c(C)cc1NC(=O)CSc1nc2c(-c3ccccc3)csc2c(=O)n1C` showed a host macrophage viability of 136%.
In the case of `Cc1nc2ccccc2cc1C(=O)NCc1ccccn1`, the host macrophage viability is reported as 91.7%.
For `O=C(NCc1cccnc1)C(=O)c1cn(CC(=O)N2CCCCC2)c2ccccc12`, the host macrophage viability was 113%.
In the case of `CCS(=O)(=O)c1ccc(C(=O)Nc2nc3ccc(Br)cc3s2)cc1`, the host macrophage viability is reported as 122%.
`CNc1nc2c(c(=O)n(C)c(=O)n2C)n1CCSc1nc2ccccc2s1` gave a host macrophage viability of 117%.
`COc1c(Sc2ccc([N+](=O)[O-])cc2)c(C)nn1-c1ccccc1` gave a host macrophage viability of 105 ± 8.9%.
With `COc1ccc(-c2ocnc2C(=O)NCCc2cccc(F)c2)cc1OC` the host macrophage viability was 111%.
For `O=C(Cn1c(CN2CCCCC2)nc2ccccc21)N1CCOCC1`, the host macrophage viability was 106%.
Work on `CC(=O)Nc1ccc(Nc2c3c(c(C#N)c4nc5ccccc5n24)CCCC3)cc1` yielded a host macrophage viability of 129%.
In the case of `CCOC(=O)c1c(SCC(=O)Nc2cc(C(F)(F)F)cc(C(F)(F)F)c2)nc(=O)[nH]c1C`, the host macrophage viability is reported as 109%.
Work on `COc1cccc2cc(C(N)=O)/c(=N\c3ccc(O)cc3)oc12` yielded a host macrophage viability of 111%.
`Cc1c(Cl)cccc1N1CCCn2c1nc1c2c(=O)n(CC(=O)O)c(=O)n1C` was tested, and the host macrophage viability was 127%.
For `COc1ccc([N+](=O)[O-])cc1NC(=O)CSc1ccc(C)cc1`, the host macrophage viability was 103%.
`COc1ccc2[nH]c3nc(SCC(=O)Nc4ccccc4Cl)nnc3c2c1` was tested, and the host macrophage viability was 118%.
For `CCn1ncc(C2=NOC(C(=O)NCc3cccnc3)C2)c1C` (configuration not stated), the host macrophage viability was 102%.
Work on `CCOc1ccc2[nH]c(C(=O)NC(c3ccccc3)c3cccnc3)c(C)c2c1` (configuration not stated) yielded a host macrophage viability of 113%.
`Cc1cccn2c(=O)nc(SCC(=O)Nc3ccccc3F)nc12` showed a host macrophage viability of 119%.
`Cc1nn2c(=O)/c(=C\c3cccnc3)sc2nc1=O` was tested, and the host macrophage viability was 117%.
For `O=C(CCN1C(=O)c2ccccc2S1(=O)=O)Nc1ccc(F)c([N+](=O)[O-])c1`, the host macrophage viability was 114%.
`Cc1ccc(C(=O)CSc2nnc3cc(C)c4ccccc4n23)s1` was tested, and the host macrophage viability was 111%.
`COc1ccc(OC)c(NC(=O)Cn2c(=O)n(C(C)C)c3ncccc32)c1` showed a host macrophage viability of 113%.
In the case of `O=C(CCC1CCCC1)N1CCN(c2ncnc3c2nnn3-c2ccc(F)cc2)CC1`, the host macrophage viability is reported as 112%.
For `COc1cc(/C=N/NC(=O)CNC(=O)c2cccc3ccccc23)cc(OC)c1OC`, the host macrophage viability was 107%.
Work on `COc1cc(OC)cc(C(=O)N2CCN(c3nc4ccccc4cc3-c3noc(C)n3)CC2)c1` yielded a host macrophage viability of 90.3%.
In the case of `Cc1nc(-n2nc(C)c(CC(=O)N3CCCCC3)c2O)sc1C`, the host macrophage viability is reported as 113%.
Compound `c1ccc2c(c1)c(N1CCN(Cc3ccc4c(c3)OCO4)CC1)nn1nnnc21` has a host macrophage viability of 102%.
`Cn1ncc2c1CCc1sc(NC(=O)CC3CCS(=O)(=O)C3)nc1-2` (configuration not stated) showed a host macrophage viability of 113%.
With `Cc1ccc(NC(=S)NC2CC3CCC(C2)N3Cc2ccccc2)cc1C` (configuration not stated) the host macrophage viability was 102%.
For `c1csc(CCNc2nn3cnnc3c3ccccc23)c1`, the host macrophage viability was 73.8%.
Compound `NC(=O)Cn1cnc2c(sc3ncccc32)c1=O` has a host macrophage viability of 110%.
`O=C(CC1Sc2ccccc2NC1=O)Nc1ccc(Cl)cc1[N+](=O)[O-]` (configuration not stated) was tested, and the host macrophage viability was 112%.
Work on `CCC(=O)Oc1cccc(N2C(=O)c3ccc(C(=O)O)cc3C2=O)c1` yielded a host macrophage viability of 110 ± 4.1%.
